Data on 4 sequences can be found in patent publication US20020165186.

Series [1] addresses HuR (ELAV, ELAVL1) (Homo sapiens) (UniProt Q15717). The series is described as follows: EMSA. The following applies: purified recombinant protein, protein details: N-terminal GST (pGEX-5X-1), E. coli BL21, label: 32P-UTP. (A gel shift assay detects complexes by their altered migration in electrophoresis.)
Series [2] has the same target. In words: activity in cells. The following applies: CAT reporter in COS cells with HuR co-transfection; protein in cells; protein details: expressed from pcDNA3-ELAV in COS cells; variant of CD83 coding RNA nt1-618.
Series [3] has as its target GST (UniProt P08515). The series is described as follows: EMSA. The following applies: GST control; purified recombinant protein; protein details: GST alone from pGEX-5X-1 (Amersham-Pharmacia); label: 32P-UTP.
For series [4], the target named is L5 (UniProt P46777). In words: EMSA. Conditions: specificity control; purified recombinant protein; protein details: GST fusion; label: 32P-UTP.
Series [5] concerns the target hnRNP A1 M9 domain (UniProt P09651). In words: EMSA. The following applies: specificity control; purified recombinant protein; protein details: GST fusion; label: 32P-UTP.

For some of these results: Construct, isoform or probe ends are uncertain for at least one entry. For some of these results: No signal at the amounts used counts as a negative.

As to “AGCUGCAACUCGGGGACAUACAGGUGCACUCUGCAGGACCCGGAUGGGCAGAGAAACCUAAGUGGCAAGGUGAUCUUGAGAGUGACAGGAUGCCCUGCACAGCGUAAAGAAGAGACUUUUAAGAAAUACAGAGCGGAGAUUGUCCUGCUGCUGGCUCUGGUUAUUUUCUACUUAACACUCAUCAUUUUCACUUGUAAGUUUGCACGGCUACAGAGUAUCUUCCCAGAUUUUUCUAAAGCUGGCAUGGAACGAGCUUUUCUCCCAGUUACCUCCCCAAAUAAGCAUUUAGGGCUAGUGACUCCUCACAAGACAGAACUGGUAUGA [CD83 RNA nt295-618]”, the binding result in series [1] (binding region stated as nt415-618, variant of CD83 coding RNA nt1-618) is “binds”.

Regarding “UUAACACUCAUCAUUUUCACUUGUAAGUUUGCACGGCUACAGAGUAUCUUCCCAGAUUUUUCUAAAGCUGGCAUGGAACGAGCUUUUCUCCCAGUUACCUCCCCAAAUAAGCAUUUAGGGCUAGUGACUCCUCACAAGACAGAACUGGUA [CD83 RNA nt466-615 (stem-loop-2)]”, in series [2], the functional effect (fold increase) was determined as 2.

Sequence “UUUAAGAAAUACAGAGCGGAGAUUGUCCUGCUGCUGGCUCUGGUUAUUUUCUACUUAACACUCAUCAUUUUCACUUGUAAGUUUGCACGGCUACAGAGUAUCUUCCCAGAUUUUUCUAAAGCUGGCAUGGAACGAGCUUUUCUCCCAGUUACCUCCCCAAAUAAGCAUUUAGGGCUAGUGACUCCUCACAAGACAGAACUGGUA [CD83 nt412-615 in CAT reporter 3'UTR]” gave a functional effect (fold increase) in series [2] of 2.

Regarding “AUGUCGCGCGGCCUCCAGCUUCUGCUCCUGAGCUGCGCCUACAGCCUGGCUCCCGCGACGCCGGAGGUGAAGGUGGCUUGCUCCGAAGAUGUGGACUUGCCCUGCACCGCCCCCUGGGAUCCGCAGGUUCCCUACACGGUCUCCUGGGUCAAGUUAUUGGAGGGUGGUGAAGAGAGGAUGGAGACACCCCAGGAAGACCACCUCAGGGGACAGCACUAUCAUCAGAAGGGGCAAAAUGGUUCUUUCGACGCCCCCAAUGAAAGGCCCUAUUCCCUGAAGAUCCGAAACACUACCAGCUGCAACUCGGGGACAUACAGGUGCACUCUGCAGGACCCGGAUGGGCAGAGAAACCUAAGUGGCAAGGUGAUCUUGAGAGUGACAGGAUGCCCUGCACAGCGUAAAGAAGAGACUUUUAAGAAAUACAGAGCGGAGAUUGUCCUGCUGCUGGCUCUGGUUAUUUUCUACUUAACACUCAUCAUUUUCACUUGUAAGUUUGCACGGCUACAGAGUAUCUUCCCAGAUUUUUCUAAAGCUGGCAUGGAACGAGCUUUUCUCCCAGUUACCUCCCCAAAUAAGCAUUUAGGGCUAGUGACUCCUCACAAGACAGAACUGGUAUGA [CD83 coding RNA nt1-618]”, the binding result was “no binding” in series [3], “binds” in series [1], “no binding” in series [4] and “no binding” in series [5].
